Reference: patent publication US9708383B2, “Double-acylated GLP-1 derivatives” (Novo Nordisk A/S, priority 2010, dated 2017)
Some entries share one result that the patent states for a list of compounds.

Test: Estimate of oral bioavailability: exposure in plasma after direct injection into the intestinal lumen of rats
Format: in vivo, male Sprague Dawley rats
Details: plasma concentration 30 min after injection in the jejunum (pM) divided by concentration of the dosing solution (μM); 1000 uM in 55 mg/ml sodium caprate; rat

Substance: semaglutide
- dose-corrected exposure at 30 min: below 45
